Experimental data published in the supplement of paper PMC10849652.
The other results are listed elsewhere or left out. Residues, ends and D or L forms follow the SMILES beside them. *: point of attachment. Cbz = O=C(OCc1ccccc1)*

Protein sequences, listed by entry. Tags and fused reporters are not part of them. Lines headed by an entry give the natural chain unless they say otherwise; changes in a name come on top.
UniProt P18887, whole entry, looked up: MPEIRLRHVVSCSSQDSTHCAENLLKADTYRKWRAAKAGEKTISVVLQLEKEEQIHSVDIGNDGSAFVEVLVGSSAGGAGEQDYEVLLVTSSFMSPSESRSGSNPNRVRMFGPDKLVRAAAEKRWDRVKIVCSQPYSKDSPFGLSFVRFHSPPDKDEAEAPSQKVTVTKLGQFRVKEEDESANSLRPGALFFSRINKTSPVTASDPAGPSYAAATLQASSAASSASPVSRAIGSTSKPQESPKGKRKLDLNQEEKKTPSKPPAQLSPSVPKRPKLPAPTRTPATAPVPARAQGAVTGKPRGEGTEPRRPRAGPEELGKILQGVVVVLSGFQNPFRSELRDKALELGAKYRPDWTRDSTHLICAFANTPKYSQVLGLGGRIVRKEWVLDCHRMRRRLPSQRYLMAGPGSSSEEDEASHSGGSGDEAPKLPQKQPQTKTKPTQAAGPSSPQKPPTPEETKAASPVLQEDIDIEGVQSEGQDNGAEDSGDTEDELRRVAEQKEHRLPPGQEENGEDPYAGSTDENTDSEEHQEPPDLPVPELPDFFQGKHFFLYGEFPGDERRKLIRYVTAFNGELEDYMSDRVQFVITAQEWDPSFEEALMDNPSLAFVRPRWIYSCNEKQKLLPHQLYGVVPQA
UniProt Q96JP5: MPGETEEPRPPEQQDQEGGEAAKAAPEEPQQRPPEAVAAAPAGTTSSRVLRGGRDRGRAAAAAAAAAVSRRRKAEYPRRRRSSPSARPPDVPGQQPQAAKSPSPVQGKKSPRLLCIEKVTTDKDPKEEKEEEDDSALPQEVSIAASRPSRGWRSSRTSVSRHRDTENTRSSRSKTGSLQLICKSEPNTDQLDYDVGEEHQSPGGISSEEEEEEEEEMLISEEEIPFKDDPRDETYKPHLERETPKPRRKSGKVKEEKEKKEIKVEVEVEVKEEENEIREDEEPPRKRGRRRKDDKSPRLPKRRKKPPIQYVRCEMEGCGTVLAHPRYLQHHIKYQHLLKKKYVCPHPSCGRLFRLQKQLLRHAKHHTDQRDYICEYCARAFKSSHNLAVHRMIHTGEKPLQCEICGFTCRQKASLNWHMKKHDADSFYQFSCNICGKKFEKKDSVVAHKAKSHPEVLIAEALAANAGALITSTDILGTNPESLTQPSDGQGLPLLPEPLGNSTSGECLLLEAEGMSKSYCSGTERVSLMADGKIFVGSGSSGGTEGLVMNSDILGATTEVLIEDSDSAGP
UniProt Q9ULC8: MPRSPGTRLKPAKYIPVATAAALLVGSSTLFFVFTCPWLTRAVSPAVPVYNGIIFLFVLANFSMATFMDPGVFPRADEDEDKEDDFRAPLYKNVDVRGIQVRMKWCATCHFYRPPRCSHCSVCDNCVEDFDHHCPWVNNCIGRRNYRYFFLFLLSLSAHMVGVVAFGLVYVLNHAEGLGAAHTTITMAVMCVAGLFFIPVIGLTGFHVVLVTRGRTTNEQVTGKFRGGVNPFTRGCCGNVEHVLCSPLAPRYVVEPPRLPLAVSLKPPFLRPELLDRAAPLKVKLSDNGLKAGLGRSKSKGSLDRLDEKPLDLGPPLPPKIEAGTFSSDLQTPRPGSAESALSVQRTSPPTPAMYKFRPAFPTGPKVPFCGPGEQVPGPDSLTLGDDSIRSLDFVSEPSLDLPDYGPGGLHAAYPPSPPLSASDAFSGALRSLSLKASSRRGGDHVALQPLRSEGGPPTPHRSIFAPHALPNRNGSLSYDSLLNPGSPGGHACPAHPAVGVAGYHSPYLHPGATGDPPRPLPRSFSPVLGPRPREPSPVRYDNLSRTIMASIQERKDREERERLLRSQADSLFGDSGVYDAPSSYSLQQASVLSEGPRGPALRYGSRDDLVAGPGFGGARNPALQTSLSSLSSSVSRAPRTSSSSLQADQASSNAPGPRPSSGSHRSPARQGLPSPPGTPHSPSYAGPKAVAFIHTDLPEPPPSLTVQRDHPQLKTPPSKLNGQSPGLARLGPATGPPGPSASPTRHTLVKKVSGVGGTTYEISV
UniProt Q9HCC9: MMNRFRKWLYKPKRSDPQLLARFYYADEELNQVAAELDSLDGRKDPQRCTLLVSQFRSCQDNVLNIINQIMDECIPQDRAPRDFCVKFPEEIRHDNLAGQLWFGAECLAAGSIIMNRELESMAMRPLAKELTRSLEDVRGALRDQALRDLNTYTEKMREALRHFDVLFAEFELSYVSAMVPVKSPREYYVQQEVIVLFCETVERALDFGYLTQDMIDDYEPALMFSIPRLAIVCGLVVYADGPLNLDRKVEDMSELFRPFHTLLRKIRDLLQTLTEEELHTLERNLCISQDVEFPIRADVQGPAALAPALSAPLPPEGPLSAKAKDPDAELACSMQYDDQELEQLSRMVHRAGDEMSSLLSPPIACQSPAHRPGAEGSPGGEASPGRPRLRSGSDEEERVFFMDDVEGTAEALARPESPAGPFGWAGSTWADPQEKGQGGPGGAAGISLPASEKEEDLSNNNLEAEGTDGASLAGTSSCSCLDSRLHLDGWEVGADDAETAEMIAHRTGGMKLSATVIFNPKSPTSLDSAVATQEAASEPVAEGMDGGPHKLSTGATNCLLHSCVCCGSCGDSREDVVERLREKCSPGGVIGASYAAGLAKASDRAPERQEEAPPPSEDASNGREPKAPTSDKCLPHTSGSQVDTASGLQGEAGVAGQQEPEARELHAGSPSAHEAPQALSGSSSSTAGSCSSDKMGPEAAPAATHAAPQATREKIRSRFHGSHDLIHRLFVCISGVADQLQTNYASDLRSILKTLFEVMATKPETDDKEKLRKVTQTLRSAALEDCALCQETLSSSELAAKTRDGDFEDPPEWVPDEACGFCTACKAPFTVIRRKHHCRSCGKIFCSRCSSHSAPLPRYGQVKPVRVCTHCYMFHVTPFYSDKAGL
UniProt Q9H5J0: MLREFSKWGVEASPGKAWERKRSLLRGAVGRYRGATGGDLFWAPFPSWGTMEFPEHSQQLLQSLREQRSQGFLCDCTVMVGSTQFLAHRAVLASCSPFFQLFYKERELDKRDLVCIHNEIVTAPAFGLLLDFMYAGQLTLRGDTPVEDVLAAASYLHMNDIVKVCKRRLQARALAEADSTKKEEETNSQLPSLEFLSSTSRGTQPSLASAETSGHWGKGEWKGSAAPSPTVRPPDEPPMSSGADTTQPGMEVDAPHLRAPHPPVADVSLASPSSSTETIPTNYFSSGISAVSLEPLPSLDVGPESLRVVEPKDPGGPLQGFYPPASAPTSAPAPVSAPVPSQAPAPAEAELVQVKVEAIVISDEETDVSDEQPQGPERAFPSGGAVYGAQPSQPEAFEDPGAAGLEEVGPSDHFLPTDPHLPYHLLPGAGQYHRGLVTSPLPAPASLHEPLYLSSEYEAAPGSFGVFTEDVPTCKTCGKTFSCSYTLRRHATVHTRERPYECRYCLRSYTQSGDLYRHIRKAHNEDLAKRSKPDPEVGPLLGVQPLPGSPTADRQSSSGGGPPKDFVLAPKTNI
UniProt Q9NXF8: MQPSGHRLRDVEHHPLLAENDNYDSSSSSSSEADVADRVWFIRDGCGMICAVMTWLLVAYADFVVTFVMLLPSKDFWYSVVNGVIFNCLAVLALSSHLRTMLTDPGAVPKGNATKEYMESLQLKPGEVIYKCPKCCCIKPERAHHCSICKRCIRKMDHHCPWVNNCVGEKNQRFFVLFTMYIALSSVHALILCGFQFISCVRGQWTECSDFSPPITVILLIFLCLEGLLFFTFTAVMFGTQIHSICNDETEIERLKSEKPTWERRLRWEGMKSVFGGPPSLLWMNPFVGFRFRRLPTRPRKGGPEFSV
UniProt Q5VZL5: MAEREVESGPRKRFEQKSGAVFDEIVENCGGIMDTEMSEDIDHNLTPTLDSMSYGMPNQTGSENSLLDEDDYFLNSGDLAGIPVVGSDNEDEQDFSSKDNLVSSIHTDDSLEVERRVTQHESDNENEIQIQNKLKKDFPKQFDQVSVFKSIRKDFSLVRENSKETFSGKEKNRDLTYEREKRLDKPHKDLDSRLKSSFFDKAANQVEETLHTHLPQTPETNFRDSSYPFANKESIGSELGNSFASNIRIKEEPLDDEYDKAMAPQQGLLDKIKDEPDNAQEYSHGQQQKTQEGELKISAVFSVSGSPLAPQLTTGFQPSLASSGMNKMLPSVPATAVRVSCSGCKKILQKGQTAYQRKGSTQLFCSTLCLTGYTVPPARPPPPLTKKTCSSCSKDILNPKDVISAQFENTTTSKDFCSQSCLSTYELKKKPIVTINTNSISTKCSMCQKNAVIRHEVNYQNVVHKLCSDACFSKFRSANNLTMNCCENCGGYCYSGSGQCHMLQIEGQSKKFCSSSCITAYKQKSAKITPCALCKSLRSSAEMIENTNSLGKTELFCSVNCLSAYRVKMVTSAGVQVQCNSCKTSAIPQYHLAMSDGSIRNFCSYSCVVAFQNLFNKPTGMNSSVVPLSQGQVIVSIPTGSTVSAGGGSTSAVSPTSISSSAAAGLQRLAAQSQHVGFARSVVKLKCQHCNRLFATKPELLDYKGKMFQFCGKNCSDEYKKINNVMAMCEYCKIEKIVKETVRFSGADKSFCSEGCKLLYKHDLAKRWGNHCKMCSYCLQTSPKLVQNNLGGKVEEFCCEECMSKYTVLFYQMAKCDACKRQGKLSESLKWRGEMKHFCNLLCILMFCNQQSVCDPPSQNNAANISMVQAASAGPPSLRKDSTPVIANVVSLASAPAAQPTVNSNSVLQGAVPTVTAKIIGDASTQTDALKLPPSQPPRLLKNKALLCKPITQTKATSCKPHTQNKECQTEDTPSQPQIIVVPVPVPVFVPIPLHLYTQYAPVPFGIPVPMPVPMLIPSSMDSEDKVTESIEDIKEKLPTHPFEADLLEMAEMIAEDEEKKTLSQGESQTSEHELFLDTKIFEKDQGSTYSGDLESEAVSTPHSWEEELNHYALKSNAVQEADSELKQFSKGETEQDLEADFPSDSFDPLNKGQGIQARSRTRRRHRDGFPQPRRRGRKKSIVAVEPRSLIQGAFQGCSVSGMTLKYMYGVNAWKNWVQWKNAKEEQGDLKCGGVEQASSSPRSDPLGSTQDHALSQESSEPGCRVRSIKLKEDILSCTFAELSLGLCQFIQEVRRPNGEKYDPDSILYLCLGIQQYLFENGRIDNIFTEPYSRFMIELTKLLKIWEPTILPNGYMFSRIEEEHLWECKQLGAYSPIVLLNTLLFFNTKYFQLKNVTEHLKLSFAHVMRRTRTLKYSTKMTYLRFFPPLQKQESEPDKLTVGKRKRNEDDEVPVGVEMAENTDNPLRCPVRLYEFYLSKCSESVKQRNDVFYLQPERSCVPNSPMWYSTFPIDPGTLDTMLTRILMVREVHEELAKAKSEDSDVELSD
UniProt Q8N567: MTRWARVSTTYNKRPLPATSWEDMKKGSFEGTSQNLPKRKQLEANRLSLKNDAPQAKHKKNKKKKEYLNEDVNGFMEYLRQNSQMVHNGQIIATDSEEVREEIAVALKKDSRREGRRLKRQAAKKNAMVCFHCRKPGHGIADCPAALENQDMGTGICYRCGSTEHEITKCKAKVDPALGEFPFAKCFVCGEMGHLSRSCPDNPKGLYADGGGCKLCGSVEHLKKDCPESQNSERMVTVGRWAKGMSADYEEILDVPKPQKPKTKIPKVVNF
UniProt Q01831: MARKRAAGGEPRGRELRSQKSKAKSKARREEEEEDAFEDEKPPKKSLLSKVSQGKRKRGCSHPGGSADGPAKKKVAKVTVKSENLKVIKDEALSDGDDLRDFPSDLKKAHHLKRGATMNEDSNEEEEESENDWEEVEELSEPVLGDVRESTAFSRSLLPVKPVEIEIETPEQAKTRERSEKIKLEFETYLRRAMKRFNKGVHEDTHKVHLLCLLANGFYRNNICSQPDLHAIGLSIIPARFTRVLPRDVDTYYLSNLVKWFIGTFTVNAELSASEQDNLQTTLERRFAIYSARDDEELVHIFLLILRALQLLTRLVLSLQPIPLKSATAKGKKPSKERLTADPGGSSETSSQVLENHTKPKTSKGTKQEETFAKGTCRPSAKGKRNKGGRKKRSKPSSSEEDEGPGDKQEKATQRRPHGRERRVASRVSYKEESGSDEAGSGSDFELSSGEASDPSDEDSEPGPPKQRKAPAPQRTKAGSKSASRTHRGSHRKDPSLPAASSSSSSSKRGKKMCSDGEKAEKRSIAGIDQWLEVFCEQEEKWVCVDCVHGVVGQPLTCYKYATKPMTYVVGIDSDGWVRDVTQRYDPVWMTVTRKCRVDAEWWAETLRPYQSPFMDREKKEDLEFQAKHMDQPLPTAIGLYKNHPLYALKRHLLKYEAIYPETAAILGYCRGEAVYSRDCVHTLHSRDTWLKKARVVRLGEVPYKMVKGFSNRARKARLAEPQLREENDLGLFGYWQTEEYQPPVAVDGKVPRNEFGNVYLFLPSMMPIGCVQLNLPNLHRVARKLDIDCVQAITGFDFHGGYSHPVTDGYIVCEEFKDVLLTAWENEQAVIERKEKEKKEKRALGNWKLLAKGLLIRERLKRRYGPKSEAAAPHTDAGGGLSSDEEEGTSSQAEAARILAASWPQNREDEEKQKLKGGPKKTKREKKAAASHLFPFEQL

How the values were obtained:
Test in all cases: log2 fold change, soluble protein after heating vs DMSO (PISA); higher = thermal stabilisation; K562 cells, 10 uM, 30 min; active = over 0.2 and 3.5 SD of the protein, either way, in both replicates (recomputed)
[1] = compound: C1COCCN1CCN2C3=CC=CC=C3N=C2NC(=O)C4=CC(=CC=C4)[N+](=O)[O-] [IRAK-1-4 Inhibitor I]
Procedure, shortened: (§1)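 Soluble protein was quantified by TMTpro 16plex LC-MS/MS after channel sums were equalised. It was obtained as the supernatant after 21,000xg for 90 min from pooled aliquots of K562 cells (2×10^6 cells/mL, 10 μM compound, 30 min) heated for 3 min across 48°C-58°C and extracted in PBS with 0.5% NP-40 at 4°C. Thermal stability values are relative to control samples and come from duplicates. They are given as log2 fold changes.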

[2] = compound: C=CC(=O)N1CCC[C@@H](n2nc(-c3ccc(Oc4ccccc4)cc3)c3c(N)ncnc32)C1 [ibrutinib]
Procedure, shortened: as §1

[3] = compound: CC(C)(C)Cn1c(N)nc2ccc(-c3[nH]c(C(C)(C)C)nc3-c3ccc(F)cc3)nc21 [ralimetinib]
Procedure, shortened: as §1

[4] = compound: CC(C)(O)CC(=O)NCCn1ccc2ncnc(Nc3ccc(Oc4cccc(C(F)(F)F)c4)c(Cl)c3)c21
Procedure, shortened: as §1

[5] = compound: CC(C)C[C@@H](C=O)NC(=O)[C@H](CC(C)C)NC(=O)[C@H](CC(C)C)NC(=O)OCc1ccccc1
Procedure, shortened: as §1

[6] = compound: CC(C)N(C[C@H]1O[C@@H](n2cnc3c(N)ncnc32)[C@H](O)[C@@H]1O)[C@H]1C[C@@H](CCc2nc3cc(C(C)(C)C)ccc3[nH]2)C1 [pinometostat]
Procedure, shortened: as §1

[7] = compound: CC1=C(C(CC(=O)N1)C2=CC=C(C=C2)C(F)(F)F)C(=O)NC3=C(C=C4C(=C3)C=NN4)F
Procedure, shortened: as §1

[8] = compound: CC1=C(C2=C(C=C1)C(=O)C3=CC=CC=C3N2CCCN)C
Procedure, shortened: as §1

[9] = compound: CC(=O)c1cnc2ccc(-c3cc(Cl)c(O)c(Cl)c3)nc2c1N[C@H]1CC[C@H](CN(C)C)CC1
Procedure, shortened: as §1

[10] = compound: CC(C)C1=C2N=C(C=C(N2N=C1)NCC3=CC=CC=C3)NCCCCCCN
Procedure, shortened: as §1

| Target | log2 fold change [1] | log2 fold change [2] | log2 fold change [3] | log2 fold change [4] | log2 fold change [5] | log2 fold change [6] | log2 fold change [7] | log2 fold change [8] | log2 fold change [9] | log2 fold change [10] |
| --- | --- | --- | --- | --- | --- | --- | --- | --- | --- | --- |
| XRN1 (UniProt Q8IZH2) | inactive: -0.234 | inactive: 0.387 | inactive: 0.233 | inactive: 0.2 | inactive: 0.239 | inactive: 0.233 | inactive: -0.107 | inactive: -0.056 |  |  |
| XRCC1 (UniProt P18887) | inactive: 0.13 |  | inactive: -0.115 | inactive: -0.368 | inactive: 0.432 | inactive: 0.41 |  | inactive: -0.047 | inactive: 0.027 | inactive: -0.066 |
| ZFP91 (UniProt Q96JP5) | inactive: -0.134 | inactive: 0 | inactive: -0.033 | inactive: 0.065 | inactive: 0 | inactive: 0.136 |  | active: -0.432 | inactive: 0.018 | inactive: 0.007 |
| YTHDF1 (UniProt Q9BYJ9) | inactive: -0.219 | inactive: -0.09 |  | inactive: 0 |  | inactive: -0.034 |  |  |  | inactive: -0.122 |
| ZDHHC8 isoform 3 (UniProt Q9ULC8) | inactive: -0.049 | inactive: 0.043 |  | active: 0.486 |  | inactive: 0.026 |  | inactive: 0.02 |  |  |
| XPOT (UniProt O43592) | inactive: -0.035 | inactive: -0.061 | inactive: -0.079 | inactive: -0.146 | inactive: 0.053 | inactive: 0.03 |  | inactive: 0.033 | inactive: 0.064 | active: -0.345 |
| YWHAZ (UniProt P63104) | inactive: 0.105 | inactive: 0.019 | inactive: 0.145 | inactive: 0.027 | inactive: -0.098 | inactive: -0.026 |  | inactive: -0.009 | inactive: 0.06 | inactive: 0.052 |
| ZMYM2 (UniProt Q9UBW7) | inactive: 0.155 | inactive: 0.061 |  |  |  | inactive: -0.081 |  |  |  |  |
| ZFYVE28 (UniProt Q9HCC9) | inactive: -0.148 | inactive: 0.255 |  |  |  | inactive: 0.111 |  |  |  | inactive: -0.066 |
| ZC3H8 (UniProt Q8N5P1) | inactive: -0.098 | inactive: 0.03 | inactive: 0.047 | inactive: 0.064 | inactive: 0.045 | inactive: 0.017 |  | inactive: -0.277 | inactive: 0.006 | inactive: 0.177 |
| ZEB1 isoform 2 (UniProt P37275) | inactive: 0.157 | inactive: 0.036 |  |  |  | inactive: -0.029 | inactive: -0.11 | inactive: 0.011 | inactive: 0.053 | inactive: 0.007 |
| XK (UniProt P51811) | inactive: -0.059 | inactive: 0.491 |  |  |  | inactive: -0.071 | inactive: 0.026 |  | inactive: -0.004 | inactive: 0.134 |
| ZFAND5 (UniProt O76080) | inactive: 0.057 | inactive: 0.03 | inactive: 0.024 | inactive: -0.019 | inactive: 0.007 | inactive: -0.047 |  | inactive: -0.095 | inactive: -0.025 | inactive: 0.072 |
| ZBTB3 (UniProt Q9H5J0) | inactive: 0.098 | inactive: 0.047 | inactive: 0 |  | inactive: 0.069 | inactive: -0.035 | inactive: -0.091 | inactive: 0.304 | inactive: 0.294 | inactive: 0.206 |
| ZDHHC7 isoform 2 (UniProt Q9NXF8) | inactive: 0 |  | inactive: -0.033 | inactive: -0.026 | inactive: -0.069 | inactive: -0.024 |  | inactive: 0.005 | inactive: -0.017 | inactive: -0.008 |
| ZDHHC5 (UniProt Q9C0B5) | inactive: -0.043 | inactive: 0.02 | inactive: -0.001 | inactive: 0.033 | inactive: -0.029 | inactive: -0.02 |  | inactive: 0.08 | inactive: -0.049 | inactive: 0.007 |
| ZMYM4 (UniProt Q5VZL5) | inactive: -0.165 | inactive: -0.137 | inactive: -0.035 | inactive: 0.053 | inactive: 0.24 | inactive: 0.125 | inactive: -0.01 | inactive: 0.284 |  | inactive: 0.006 |
| ZCCHC9 (UniProt Q8N567) | inactive: -0.085 | inactive: 0.06 | inactive: 0.017 | inactive: 0.166 | inactive: 0.305 | inactive: 0.187 |  | inactive: -0.187 | inactive: 0.143 | inactive: 0.004 |
| ZBTB21 (UniProt Q9ULJ3) | inactive: 0.006 | inactive: -0.174 | inactive: 0.121 | inactive: 0.101 | inactive: -0.013 | inactive: 0.209 |  | inactive: -0.183 | active: -0.42 | inactive: -0.027 |
| XPC (UniProt Q01831) | inactive: 0.023 |  | inactive: -0.424 | inactive: -0.152 | inactive: 0.338 | inactive: 0.029 |  |  | inactive: -0.135 | inactive: 0.002 |
| ZFR (UniProt Q96KR1) | inactive: -0.032 | inactive: 0.01 | inactive: 0.201 | inactive: 0.222 | inactive: 0.041 | inactive: 0.178 | inactive: -0.165 | inactive: 0.005 |  | inactive: 0.184 |
| YIF1A (UniProt O95070) | inactive: 0.027 | inactive: 0.092 | inactive: -0.094 |  | inactive: -0.049 | inactive: -0.064 | inactive: -0.024 | inactive: 0.082 | inactive: -0.044 | inactive: 0.033 |
| ZDHHC17 (UniProt Q8IUH5) | inactive: -0.008 | inactive: -0.029 | inactive: -0.099 | inactive: 0.062 | inactive: -0.057 | inactive: 0.053 |  | inactive: 0.037 | inactive: -0.007 | inactive: -0.061 |

Some entries already given with just log2 fold change [6], log2 fold change [10] and log2 fold change [9]:
Target | log2 fold change [6] | log2 fold change [10] | log2 fold change [9]
ZDHHC8 isoform 3 (UniProt Q9ULC8) | inactive: 0.026 |  | 
ZMYM4 (UniProt Q5VZL5) | inactive: 0.125 | inactive: 0.006 | 
